Assay [1] addresses T1, BRD9 (Homo sapiens, UniProt Q9H8M2). Description: BRD9 degradation, HiBiT-BRD9 KI HEK293 (LgBiT) cells, NanoGlo Lytic Endpoint assay (Assay Protocol 1). On the procedure:
HiBiT-BRD9 KI HEK293 (LgBiT) Cells (Promega CS3023412) were seeded at 8000 cells per well (38 μL) in sterile white bottom 384 well plates (Invitrogen 164610 or Greiner 781080) and incubated overnight at 37° C. with 5% CO2. The next day, compounds were prepared at 1000× final concentration in DMSO and diluted 1:100 in media (DMEM PAN Biotech P04-03550+10% FBS ATCC 302025). 4 μL compound was added to each well of the cell plate and incubated for 6 h at 37° C. with 5% CO2 BRD9 expression was quantified using the NanoGlo Lytic Endpoint assay (Promega N3050). The lytic buffer was equilibrated to room temperature for 10-15 min before lytic reagent was prepared by adding substrate (1:50) and LgBit protein (1:100) in lytic buffer. 40 μL lytic reagent mix was added to each well of the cel plate and plates were centrifuged briefly at ˜50g. Plates were incubated with shaking (350 RPM) for 12-24 min before reading using the LUM plus module of a BMG Pherastar FSX. Data was analysed using Dotmatics software and % BRD9 remaining was calculated by normalisation to average data from high and low control wells (DMSO treated cels and no cells respectively).
Background: With HiBiT, luminescence reflects the tagged protein that the partner subunit can reach.

Sequences of proteins named here, by UniProt entry; tags and fusion partners are left off.
UniProt Q9H8M2, whole entry: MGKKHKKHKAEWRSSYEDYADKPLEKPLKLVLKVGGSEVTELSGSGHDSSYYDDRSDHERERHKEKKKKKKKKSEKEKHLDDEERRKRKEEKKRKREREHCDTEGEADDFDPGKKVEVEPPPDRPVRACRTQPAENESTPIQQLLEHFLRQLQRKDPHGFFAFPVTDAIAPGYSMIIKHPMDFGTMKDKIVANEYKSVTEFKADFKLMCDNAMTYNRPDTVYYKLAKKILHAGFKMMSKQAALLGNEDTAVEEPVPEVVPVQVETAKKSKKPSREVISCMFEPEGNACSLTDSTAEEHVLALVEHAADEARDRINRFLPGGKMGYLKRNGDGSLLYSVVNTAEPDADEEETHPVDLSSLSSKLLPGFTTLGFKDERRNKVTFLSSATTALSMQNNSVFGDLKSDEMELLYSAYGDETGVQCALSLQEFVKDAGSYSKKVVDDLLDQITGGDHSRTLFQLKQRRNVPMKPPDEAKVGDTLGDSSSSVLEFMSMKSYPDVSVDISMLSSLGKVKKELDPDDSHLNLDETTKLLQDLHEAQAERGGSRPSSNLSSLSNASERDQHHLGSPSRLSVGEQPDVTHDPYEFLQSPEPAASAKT

Assay [2] has as its target T1, BRD9. Description: Degradation of BRD9 (IF), immunofluorescence in MV4-11 cells, 24 hours (Assay Protocol 2). On the procedure:
Assay Protocol 2—Degradation of BRD9 (IF)
A suspension of MV4-11 cells (ATCC CRL-9591) was prepared in phenol red-free assay media (IMDM Thermo Scientific 21056023+10% FBS ATCC 302025) and cells were seeded at 20,000 cells per well (45 μL) in sterile black poly-d-lysine coated 384 well plates (Greiner 781948). Compounds were prepared at 1000× final concentration in DMSO, diluted 1:100 in assay media, and 5 μL compound was added to each well of the cell plate. Cells were incubated for 24 hours at 37° C. with 5% CO2. All the following incubations for immunofluorescence staining were at room temperature. 15 μL of 16% PFA was added to each well (3.7% final concentration) and the cells were fixed for 15 min then washed twice with DPBS. Cells were permeabilised with 0.1% Triton X-100 for 10 min, Triton X-100 was removed, then blocked with 1% BSA in DPBS for 1 hour. Cells were stained with 25 μL anti-BRD9 E4Q3F antibody (CST 48306) diluted 1:25600 in 1% BSA in DPBS for 2-3 hours. […] Images were processed using Harmony High-Content Imaging and Analysis Software (Perkin Elmer) and the mean contrast ratio of Alexa Fluor™ 647 in central nuclei was used to quantify BRD9 protein levels. Data was further analysed using Dotmatics software and % BRD9 remaining was calculated by normalisation to average data from high and low control wells (cells treated with DMSO or 100 nM CFT-8634 respectively).

The structures given here were assigned with low confidence; some may be wrong.

One compound from patent US20260092061A1, “COMPOUNDS FOR TARGETED PROTEIN DEGRADATION” (Amphista Therapeutics Limited, priority 2022, published 2026) can be followed below.

Usually DC50 stands for the concentration at which degradation of the target reaches its halfway point. For the compound `COc1cc(-c2cn(C)c(=O)c(C)c2C)cc(OC)c1CN1CCN(Cc2cccc(C3CCCN3C(=O)C(C#N)=CC(C)C)c2)CC1` (stereo not shown), on BRD9 [1], the DC50 lay in the range of 10 to 25 nM and the Dmax entry is reported as “+++ (+++ = ≥75%)”. In addition, at BRD9 [2], the DC50 was below 1.25 nM; the Dmax result was “+ (+ = >40% and <70%)”.
